US20100119478A1
Results are given in words; binding and its absence hold for the method and conditions named. Some binding calls cover weakened binding; strength is not graded here.

By UniProt entry, the sequences of proteins in these tests, tags left out. Residues count along the entry.
UniProt P14844, residues 24-148: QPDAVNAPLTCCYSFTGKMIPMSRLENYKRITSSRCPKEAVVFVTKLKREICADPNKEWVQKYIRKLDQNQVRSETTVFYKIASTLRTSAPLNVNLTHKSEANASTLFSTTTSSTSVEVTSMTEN
UniProt P10148, residues 24-148: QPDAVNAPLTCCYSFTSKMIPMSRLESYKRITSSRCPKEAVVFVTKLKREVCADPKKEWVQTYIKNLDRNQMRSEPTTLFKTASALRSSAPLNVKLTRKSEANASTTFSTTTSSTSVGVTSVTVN

What was measured:
rat MCP-1 N1pE (rat) [1] = biological target: rat MCP-1 N1pE (rat) (UniProt P14844); test: immunohistochemistry (DAB) on rat brain sections after microinjection
08 ZPDAVNAPL = biological target: T1, 08 ZPDAVNAPL; test: PepSpot membrane, peptide 1 µg/spot, antibody 1 µg/ml, AP-conjugated anti-mouse detection
T1 sequence (peptide, position 1, Z = pyroglutamate (pE), per p-0211): ZPDAVNAPL

[2] = biological target: T2, 15 Z…; test: as above
T2 sequence (peptide, position 1, Z = pyroglutamate (pE), per p-0211): ZPDALNVPST

mouse MCP-1 N1pE (mouse) [3] = biological target: mouse MCP-1 N1pE (mouse) (UniProt P10148); test: sandwich ELISA, capture rabbit anti mJE, detection by the clone
mouse MCP-1 N1pE (mouse) [4] = biological target: mouse MCP-1 N1pE (mouse) (UniProt P10148); test: Western blot of RAW 264.7 supernatant, antibody 1 µg/ml
rat MCP-1 N1pE (rat) [5] = biological target: rat MCP-1 N1pE (rat) (UniProt P14844); test: immunohistochemistry, rat brain sections
mouse MCP-1 N1pE (mouse) [6] = biological target: mouse MCP-1 N1pE (mouse) (UniProt P10148); test: Western blot of RAW 264.7 cell culture supernatants, antibody 1 µg/ml
mouse MCP-1 N1pE (mouse) [7] = biological target: mouse MCP-1 N1pE (mouse) (UniProt P10148); test: sandwich ELISA: rabbit anti mJE capture, recombinant mMCP-1 N1pE titrated, antibody clone with HRP anti-mouse for detection

Measured: binding

B1: monoclonal antibody 332-4B8 (antibody, V domains shown)
VH: EVQLQQSGPELEKPGASVKISCKASGYSFTGYNMNWVKQNNGKSLEWIGNITPYYGSTSYNQKFKGRVTLTVDKSSSTAYMQLKSLTSEDSAVYFCLLWLRRGDYAMDYWGQGTSVTVSS
VL: DVLMTQTPLSLPVSLGDQASISCKSSQSIVHSNGNTYLEWYLQKPGQSPKLLIYKVFNRFSGVPDRFSGSGSGTDFTLKISRVEAEDLGVYYCFQGSHVPYTFGGGTKLEIKR
binds: all assays above
